Experimental data published in article PMC8144298.
Construct, isoform or probe ends are uncertain for at least one entry. For some assays here: Whether high values mean tight binding is not given here for every scale.

By UniProt entry, the sequences of proteins in these tests, tags left out. Where a name states a change or a piece, a line headed by the entry shows the natural chain unless it says otherwise. Residues count along the entry.
UniProt P0A6X3, 2-102: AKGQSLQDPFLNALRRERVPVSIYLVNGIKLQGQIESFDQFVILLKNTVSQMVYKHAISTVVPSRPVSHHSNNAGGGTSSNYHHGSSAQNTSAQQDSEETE
UniProt P69913: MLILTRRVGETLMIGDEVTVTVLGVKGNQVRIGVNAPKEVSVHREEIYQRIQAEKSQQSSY

Tests used:
Hfq = Hfq (UniProt P0A6X3); assay: EMSA; settings: higher affinity than RrBshort, 2 pmol random 75-nt RNA present; CsrA EMSA: 100 mM KCl, 10 mM MgCl2, 2 mM DTT, 7.5% glycerol, 2 ng total yeast RNA, 120 pM RNA, 10 min 37 C, 8% native PAGE in 1x TBE (pH not stated); recombinant protein; label: 5' 32P; probe letters rebuilt from the primers and the genome; part of a longer molecule
[1] = biological target: CsrA-3xFLAG (Escherichia coli) (UniProt P69913); assay: competition with a labelled probe; settings: competitor conc. that fully displaces labeled RrBshort (120 pM) from 200 nM CsrA; CsrA EMSA: 100 mM KCl, 10 mM MgCl2, 2 mM DTT, 7.5% glycerol, 2 ng total yeast RNA, 120 pM RNA, 10 min 37 C, 8% native PAGE in 1x TBE (pH not stated); recombinant protein; probe letters rebuilt from the primers and the genome; part of a longer molecule

Sequence | binding result (Hfq) | binding signal [1]
AACGGAGCGGCACCUCUUUUAACCCUUGAAGUCACUGCCCGUUUCGAGAGUUUCUCAACUCGAAUAACUAAAGCCAACGUGAACUUUUGCGGAUCUCCAGGAUCCGCU [OxyS] | binds | –
GACAGGGAGUCAGACAACGAAGUGAACAUCAGGAUGAUGACACUUCUGCAGGACACACCAGGAUGGUGUUUCAGGGAAAGGCUUCUGGAUGAAGCGAAGAGGAUGACGCAGGACGCGUUAAAGGACACCUCCAGGAUGGAGAAUGAGAACCGGUCAGGAUGAUUCGGUGGGUCAGGAAGGCCAGGGACACUUCAGGAUGAAGUAUCACAUCGGGGUGGUGUGAGCAGGAAGCAAUAGUUCAGGAUGAACGAUUGGCCGCAAGGCCAGAGGAAAAGUUGUCAAGGAUGAGCAGGGAGCAACAAAAGUAGCUGGAAUGCUGCGAAACGAACCGGGAGCGCUGUGAAUACAGUGCUCCCUUUUUUUAUU [CsrB] | – | 3.13 nM
